As a reminder, the Kd is the concentration at which binding is half-saturated.

Sequences of proteins named here, by UniProt entry; tags and fusion partners are left off. Residues count along the entry.
UniProt P08069, 31-1367: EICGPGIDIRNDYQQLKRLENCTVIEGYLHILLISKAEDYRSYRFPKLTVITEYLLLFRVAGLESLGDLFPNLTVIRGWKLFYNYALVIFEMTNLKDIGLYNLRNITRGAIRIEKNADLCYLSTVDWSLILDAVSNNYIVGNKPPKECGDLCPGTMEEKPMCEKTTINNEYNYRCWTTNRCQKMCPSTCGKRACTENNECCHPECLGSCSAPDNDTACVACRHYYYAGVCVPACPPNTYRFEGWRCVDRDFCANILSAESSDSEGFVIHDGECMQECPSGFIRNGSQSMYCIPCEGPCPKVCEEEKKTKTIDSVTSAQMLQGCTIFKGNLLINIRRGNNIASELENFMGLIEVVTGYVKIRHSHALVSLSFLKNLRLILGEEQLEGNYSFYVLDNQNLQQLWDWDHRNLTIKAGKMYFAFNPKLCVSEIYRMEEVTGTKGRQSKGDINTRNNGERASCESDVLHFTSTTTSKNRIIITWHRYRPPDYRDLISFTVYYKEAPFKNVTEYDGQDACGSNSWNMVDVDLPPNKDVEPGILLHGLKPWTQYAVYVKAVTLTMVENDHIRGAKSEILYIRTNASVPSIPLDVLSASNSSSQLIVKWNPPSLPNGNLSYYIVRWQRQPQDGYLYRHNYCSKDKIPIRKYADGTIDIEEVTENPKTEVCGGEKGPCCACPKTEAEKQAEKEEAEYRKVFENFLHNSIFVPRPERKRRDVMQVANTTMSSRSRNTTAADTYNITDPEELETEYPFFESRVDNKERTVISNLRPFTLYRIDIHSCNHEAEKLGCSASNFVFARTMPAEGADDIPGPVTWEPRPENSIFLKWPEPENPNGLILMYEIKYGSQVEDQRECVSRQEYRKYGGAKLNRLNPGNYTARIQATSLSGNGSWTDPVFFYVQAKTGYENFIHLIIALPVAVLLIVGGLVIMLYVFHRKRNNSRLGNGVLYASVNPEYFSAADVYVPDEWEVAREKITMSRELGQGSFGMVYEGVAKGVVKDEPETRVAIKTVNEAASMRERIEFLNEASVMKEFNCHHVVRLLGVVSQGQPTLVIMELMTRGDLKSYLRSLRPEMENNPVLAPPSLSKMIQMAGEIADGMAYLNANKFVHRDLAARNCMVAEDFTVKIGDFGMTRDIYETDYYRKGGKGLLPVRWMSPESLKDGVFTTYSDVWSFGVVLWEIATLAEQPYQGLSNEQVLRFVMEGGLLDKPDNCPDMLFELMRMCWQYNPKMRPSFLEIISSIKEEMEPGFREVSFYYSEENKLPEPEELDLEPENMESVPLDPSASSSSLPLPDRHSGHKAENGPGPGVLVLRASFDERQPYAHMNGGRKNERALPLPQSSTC

The experiment has as its target recombinant human Insulin-like Growth Factor-I Receptor (rhIGF-1R) (Homo sapiens, UniProt P08069). In words: Microscale thermophoresis binding to rhIGF-1R. From the text:
The transparency of the prepared hydrogel in the visible light range of 380 nm-780 nm is detected by UV-Vis spectroscopy (Lambda 35 UV/Vis Spectrometer, Perkin-Elmer). […] Therefore, we conducted microscale thermophoresis experiments to determine their binding affinity to recombinant human Insulin-like Growth Factor-I Receptor (rhIGF-1R).
rhIGF-1R was labeled with the fluorescent dye NT-647 using a Monolith NT™ Protein Labelling Kit (cysteine-reactive) (NanoTemper Technologies, Germany). PBS buffer containing 0.05% Tween 20 (pH 7.4) was used as the assay buffer. For the interaction experiments of fluorescent proteins with Compound 1, 2, 3or 4, the concentration of labeled proteins were kept constant, while the concentration of Compound 1, 2, 3or 4 varied from 0.054 nM to 2 μM. Then, the solution of fluorescent proteins was mixed with solutions containing different concentrations of Compound 1, 2, 3or 4 at 1:1 volume ratio. After a short incubation time, the samples were loaded into MST NT.115 standard glass capillaries and the analysis was performed using the Monolith NT.115 system (NanoTemper Technologies, Germany). The KD value was calculated using the NanoTemper software package.

`COc1ccc2cc([C@H](C)C(=O)N[C@H](Cc3ccccc3)C(=O)N[C@H](Cc3ccccc3)C(=O)NCC(=O)N[C@@H](CO)C(=O)N[C@@H](CO)C(=O)N[C@@H](CO)C(=O)N[C@@H](CCCNC(=N)N)C(=O)O)ccc2c1` [Compound H1, Npx-^DF^DFGSSSR]: the Kd was found to be 145 nM.

With `COc1ccc2cc([C@H](C)C(=O)N[C@@H](Cc3ccccc3)C(=O)N[C@@H](Cc3ccccc3)C(=O)NCC(=O)N[C@@H](CO)C(=O)N[C@@H](CO)C(=O)N[C@@H](CO)C(=O)N[C@@H](CCCNC(=N)N)C(=O)O)ccc2c1` [Compound H2, Npx-FFGSSSR], the Kd turned out to be 173 nM.

Values taken from PMC7481406, “Bifunctional supramolecular nanofiber inhibits atherosclerosis by enhancing plaque stability and anti-inflammation in apoE^-/- mice” (Theranostics, 2020).
